Data as given in PubChem BioAssay AID1259259 (Sanger Institute, 2017).
Shown is a random part of 794 reagents tested. 9 of all reagents (1.1%) count as active. 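Calls rest on knock-down alone, not drug synergy; viability values seem capped at 1.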 Entries without a mark were called inactive. Not all columns of the deposit are shown. Not stated in the record: the amount of reagent, the time to read-out.

- Assay: 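Synthetic lethal kinase partners of anchor drugs in colorectal cancer cells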 (primary screen)
- Cell system: SW1463 human colorectal cancer cells
- Reagent: siRNA pool against human genes
- Challenge: DMSO vehicle, or one anchor drug: BYL719 at 1 µM, cetuximab at 5 µg/ml, or trametinib at 10 nM
- Measured: 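Viability as fraction of control pool 2 (non-targeting), replicate mean; knock-down robust z-score without any drug; synergy score averaged for each anchor drug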
- Direction: robust z-score, knock-down alone: higher = more viable cells after knock-down; viability, knock-down alone: higher = more viable cells
- Units: viability, knock-down alone in fraction of control
- Call rule: 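Knock-down called essential when its robust z-score without drug falls below -3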
- Meaning of the calls: active = essential: viability loss from knock-down alone; inactive = no change from knock-down alone

RPS6KB1 | robust z-score, knock-down alone = 0.0497; viability, knock-down alone = 0.931
PKN3 | robust z-score, knock-down alone = -0.104; viability, knock-down alone = 0.921
KSR1 | robust z-score, knock-down alone = -0.566; viability, knock-down alone = 0.891
FCSK | robust z-score, knock-down alone = 1.13; viability, knock-down alone = 1
PAK3 | robust z-score, knock-down alone = 1.13; viability, knock-down alone = 1
TAF1 | robust z-score, knock-down alone = 0.208; viability, knock-down alone = 0.941
CALM2 | robust z-score, knock-down alone = 0.985; viability, knock-down alone = 0.991
CDK1 | robust z-score, knock-down alone = 1.13; viability, knock-down alone = 1
DCLK1 | robust z-score, knock-down alone = 0.773; viability, knock-down alone = 0.977
TPD52L3 | robust z-score, knock-down alone = -0.149; viability, knock-down alone = 0.918
DGKQ | robust z-score, knock-down alone = -0.409; viability, knock-down alone = 0.901
RAF1 | robust z-score, knock-down alone = 0.0342; viability, knock-down alone = 0.93
MERTK | robust z-score, knock-down alone = -0.521; viability, knock-down alone = 0.894
BRD2 | robust z-score, knock-down alone = -0.5; viability, knock-down alone = 0.896
MLKL | robust z-score, knock-down alone = 0.56; viability, knock-down alone = 0.964
MAP3K3 | robust z-score, knock-down alone = -0.149; viability, knock-down alone = 0.918
EIF2AK1 | robust z-score, knock-down alone = 0.223; viability, knock-down alone = 0.942
BMPR2 | robust z-score, knock-down alone = -1.14; viability, knock-down alone = 0.854
SOS2 | robust z-score, knock-down alone = 1.13; viability, knock-down alone = 1
CDK4 | robust z-score, knock-down alone = -2.32; viability, knock-down alone = 0.779
HASPIN | robust z-score, knock-down alone = -1.11; viability, knock-down alone = 0.856
IDH2 | robust z-score, knock-down alone = -0.375; viability, knock-down alone = 0.904
BCKDK | robust z-score, knock-down alone = 1.13; viability, knock-down alone = 1
PAPSS2 | robust z-score, knock-down alone = -1.69; viability, knock-down alone = 0.819
MAP3K15 | robust z-score, knock-down alone = 1.13; viability, knock-down alone = 1
TESK2 | robust z-score, knock-down alone = -0.595; viability, knock-down alone = 0.889
ADCK2 | robust z-score, knock-down alone = -2.29; viability, knock-down alone = 0.781
PTPRU | robust z-score, knock-down alone = -2.71; viability, knock-down alone = 0.753
HIPK1 | robust z-score, knock-down alone = 1.13; viability, knock-down alone = 1
PSKH2 | robust z-score, knock-down alone = 0.501; viability, knock-down alone = 0.96
CHKA | robust z-score, knock-down alone = 0.00612; viability, knock-down alone = 0.928
SRPK2 | robust z-score, knock-down alone = 0.671; viability, knock-down alone = 0.971
PIP5KL1 | robust z-score, knock-down alone = -0.543; viability, knock-down alone = 0.893
SGK2 | robust z-score, knock-down alone = -0.864; viability, knock-down alone = 0.872
NPR2 | robust z-score, knock-down alone = 0.655; viability, knock-down alone = 0.97
CAMK2D | robust z-score, knock-down alone = 0.778; viability, knock-down alone = 0.978

Sorted by “robust z-score, knock-down alone” (high to low): some entries from above
CAMK2D | robust z-score, knock-down alone = 0.778; viability, knock-down alone = 0.978
NPR2 | robust z-score, knock-down alone = 0.655; viability, knock-down alone = 0.97
